Where a chain is given by its changes, count along the chain named. Results are given in words; binding and its absence hold for the method and conditions named. Some results given as binding are weak or reduced against the parent protein; the word gives no strength.
Biological target: recombinant human CD8 alpha fused to Fc fragment of human IgG1 (human) (UniProt P01732)
Assay: ELISA, biotinylated CD8W7 or CD8W13

By UniProt entry, the sequences of proteins in these tests, tags left out. Residues count along the entry.
UniProt P01732, residues 22-182: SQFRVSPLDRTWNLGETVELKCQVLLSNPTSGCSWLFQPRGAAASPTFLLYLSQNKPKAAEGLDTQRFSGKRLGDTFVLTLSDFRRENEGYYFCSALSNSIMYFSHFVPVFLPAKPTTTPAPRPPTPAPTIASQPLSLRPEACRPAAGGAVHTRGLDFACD

B1: P282ER9P1360_G7 (designed binder)
chain: LPAPKNLVVSRVTEDSARLSWTAPDAAFDSFGILYYEPVDSGEAITLPVPGSERSYDLTGLKPGTEYWVVITGVKGGAPSTPLGAILTT
B1 was tested, and the binding was “binds”.

B2: P282ER9P1360_H10 (designed binder)
chain: LPAPKNLVVSRVTEDSARLSWTAPDAAFDSFEIYYPEWPFAGEAIGLPVPGSERSYDLTGLKPGTEYFVVIYGVKGGELSEPLTAQFTT
B2 was tested, and the binding was “binds”.

B3: P282ER9P1360_H2 (designed binder)
chain: LPAPKNLVVSRVTEDSARLSWTAPDAAFDSFSIAYVEAELVGEAIQLVVPGSERSYDLTGLKPGTEYWVVILGVKGGNPSNPLGASFTTT
For B3, the binding was “binds”.

B4: P282ER9P1360_H3 (designed binder)
chain: LPAPKNLVVSRVTEDSARLSWTAPDAAFDSFSIAYVEAELVGEAIQLVVPGSERSYDLTGLKPGTEYWVVILGVKGGNPSNPLGASFTT
In the case of B4, the binding is reported as “binds”.

B5: P282FR9P1361_A3 (designed binder)
chain: LPAPKNLVVSRVTEDSARLSWTAPDAAFDSFDIWYAEYGYPGEAIVLTVPGSERSYDLTGLKPGTEYDVAIVGVKGGNRSYPLSAIFTT
For B5, the binding was “binds”.

B6: P282AR9P1356_H1 (designed binder)
chain: LPAPKNLVVSRVTEDSARLSWIPNPSSFDSFLIQYQESEKVGEAIVLTVPGSERSYDLTGLKPGTEYTVSIYGVDVVFDPVGFPSHSNPLSAIFTT
In the case of B6, the binding is reported as “binds”.

B7: P282FR9P1361_A5 (designed binder)
chain: B1 chain with L87F
B7 was tested, and the binding was “binds”.

B8: P282FR9P1361_C7 (designed binder)
chain: B5 chain with D32G, A36H, Y40G, P41D, V72W, N78D, R79V
For B8, the binding was “binds”.

B9: P282FR9P1361_D3 (designed binder)
chain: B5 chain with K62N, V72S, N78P
In the case of B9, the binding is reported as “binds”.

B10: P282FR9P1361_E12 (designed binder)
chain: LPAPKNLVVSRVTEDSARLSWTAPDAAFDSLGITYWESPYAGEAIVLTVPGSERSYDLTGLKPGTEYGVFILGVKGGYPSAPLSAIFTT
B10 was tested, and the binding was “binds”.

B11: P282FR9P1361_F1 (designed binder)
chain: B5 chain with D32G, P41S, V72W, N78V
For B11, the binding was “binds”.

B12: P282FR9P1361_F11 (designed binder)
chain: B5 chain with D32G, A36R, Y40G, P41S, V72W, N78V
In the case of B12, the binding is reported as “binds”.

B13: P282FR9P1361_F2 (designed binder)
chain: B5 chain with V72S, V74I, N78P
With B13 the binding was “binds”.

B14: P282FR9P1361_F3 (designed binder)
chain: B5 chain with V72S, V74A, N78P
For B14, the binding was “binds”.

B15: P282FR9P1361_F7 (designed binder)
chain: LPAPKNLVVSRVTEDSARLSWTAPDAAFDSFPIWYREYATGEAIVLTVPGSERSYDLTGLKPGTEYDVVITGVKGGYPSYPLSAIFTT
In the case of B15, the binding is reported as “binds”.

B16: P282FR9P1361_G9 (designed binder)
chain: B10 chain with L31F
With B16 the binding was “binds”.

B17: P282AR9P1356_H6 (designed binder)
chain: LPAPKNLVVSRVTEDSARLSWRKRANSFDSFLIQYQESEKVGEAIVLTVPGSERSYDLTGLKPGTEYTVSIYGVHVEYDQHGRPRWSNPLSAIFTT
For B17, the binding was “binds”.

B18: P282FR9P1361_H4 (designed binder)
chain: B5 chain with D32G, P41S, V72Y, N78S, R79P
For B18, the binding was “binds”.

B19: P282FR9P1361_H5 (designed binder)
chain: B5 chain with V72S, N78P
For B19, the binding was “binds”.

B20: P283AR9P1362_A3 (designed binder)
chain: LPAPKNLVVSRVTEDSARLSWKRIDSPFDSFLIQYQESEKVGEAIVLTVPGSERSYDLTGLKPGTEYTVSIYGVDVKYDIDSRPISSNPLSAIFTT
B20 was tested, and the binding was “binds”.

B21: P283AR9P1362_A4 (designed binder)
chain: B20 chain with K22I, R23G, I24H, P27G
For B21, the binding was “binds”.

B22: P283AR9P1362_B10 (designed binder)
chain: LPAPKNLVVSRVTEDSARLSWKRRWDSFDSFLIQYQESEKVGEAIVLTVPGSERSYDLTGLKPGTEYTVSIYGVDVEWFNGLPHHSNPLSAIFTT
For B22, the binding was “binds”.

B23: P283AR9P1362_B2 (designed binder)
chain: LPAPKNLVVSRVTEDSARLSWAKHPNSFDSFLIQYQESEKVGEAIVLTVPGSERSYDLTGLKPGTEYTVSIYGVDVVVNELNNPLFSNPLSAIFTT
In the case of B23, the binding is reported as “binds”.

B24: P283AR9P1362_B8 (designed binder)
chain: B20 chain with K22W, R23T, I24S, D25P, S26L
B24 was tested, and the binding was “binds”.

B25: P283AR9P1362_C12 (designed binder)
chain: B20 chain with K22A, R23K, I24N, D25L, S26H, P27S
With B25 the binding was “binds”.

B26: P283AR9P1362_C6 (designed binder)
chain: LPAPKNLVVSRVTEDSARLSWYPSDPPFDSFLIQYQESEKVGEAIVLTVPGSERSYDLTGLKPGTEYTVSIYGVPNYHSRRSYYYSNPLSAIFTT
For B26, the binding was “binds”.

B27: P283AR9P1362_C7 (designed binder)
chain: LPAPKNLVVSRVTEDSARLSWVKRATSFDSFLIQYQESEKVGEAIVLTVPGSERSYDLTGLKPGTEYTVSIYGVDVRYNEGQPIWSNPLSAIFTT
For B27, the binding was “binds”.

B28: P282BR9P1357_A9 (designed binder)
chain: LPAPKNLVVSRVTEDSARLSWKANRTTDLHFDSFLIQYQESEKVGEAIVLTVPGSERSYDLTGLKPGTEYTVSIYGVDVQYDGQQPLYSNPLSAIFTT
With B28 the binding was “binds”.

B29: P283AR9P1362_D2 (designed binder)
chain: LPAPKNLVVSRVTEDSARLSWQRPKSGFFDSFLIQYQESEKVGEAIVLTVPGSERSYDLTGLKPGTEYTVSIYGVDVKYDIDSRPISSNPLSAIFTT
With B29 the binding was “binds”.

B30: P283AR9P1362_D3 (designed binder)
chain: B17 chain with R22P, K23V, R24E, A25S, S27A, H75D
In the case of B30, the binding is reported as “binds”.

B31: P283AR9P1362_D4 (designed binder)
chain: B20 chain with K22V, I24E, D25H, S26D, P27S
With B31 the binding was “binds”.

From patent publication US20210032312A1
